Earlier results in PMC8509428, “The Phenoxyalkyltriazine Antagonists for 5-HT6 Receptor with Promising Procognitive and Pharmacokinetic Properties In Vivo in Search for a Novel Therapeutic Approach to Dementia Diseases” (International Journal of Molecular Sciences, 2021).

Biological target: human 5-HT6R
Conditions: ± SD; read-out: Ki 5-HT6; cited from earlier work

Cc1cc2c(s1)Nc1ccccc1N=C2N1CCN(C)CC1 [Ref, olanzapine, reference compound]
Ki: 7 ± 1 nM
